# Test results published in the supplement of paper PMC8728848.
# The list shows a part of the results.
# Key:
# Experiment in all cases: glycan array binding signal (z-score within array); higher = stronger binding
# Conditions in all cases: glycan notation: IUPAC condensed, linker removed
# Fuc(a1-2)[Gal(a1-3)]Gal = molecular target: Fuc(a1-2)[Gal(a1-3)]Gal
# Summary of the method: (§1)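 From the Consortium for Functional Glycomics database, 3228 arrays were curated, keeping only those whose protein sequence was available. Binding is given as a within-array Z-score averaged across arrays sharing a protein sequence and across linkers. Negative Z-scores can be read as non-binding.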
# [1] = molecular target: Fuc(a1-2)[Gal(a1-3)]Gal(b1-3)GlcNAc
# Summary of the method: as §1
# [2] = molecular target: Fuc(a1-2)[Gal(a1-3)]Gal(b1-3)GlcNAc(b1-2)Man(a1-3)[Fuc(a1-2)[Gal(a1-3)]Gal(b1-3)GlcNAc(b1-2)Man(a1-6)]Man(b1-4)GlcNAc(b1-4)GlcNAc
# Summary of the method: as §1
# [3] = molecular target: Fuc(a1-2)[Gal(a1-3)]Gal(b1-4)Glc
# Summary of the method: as §1
# [4] = molecular target: Fuc(a1-2)[Gal(a1-3)]Gal(b1-4)GlcNAc
# Summary of the method: as §1
# [5] = molecular target: Fuc(a1-2)[Gal(a1-3)]Gal(b1-4)GlcNAc(b1-2)Man(a1-3)[Fuc(a1-2)[Gal(a1-3)]Gal(b1-4)GlcNAc(b1-2)Man(a1-6)]Man(b1-4)GlcNAc(b1-4)GlcNAc
# Summary of the method: as §1
# [6] = molecular target: Fuc(a1-2)[Gal(a1-3)]Gal(b1-4)[Fuc(a1-3)]GlcNAc
# Summary of the method: as §1
# [7] = molecular target: Fuc(a1-2)[Gal(a1-4)]Gal(b1-4)GlcNAc
# Summary of the method: as §1
# [8] = molecular target: Fuc(a1-2)[GalNAc(a1-3)]Gal
# Summary of the method: as §1
# [9] = molecular target: Fuc(a1-2)[GalNAc(a1-3)]Gal(b1-3)GalNAc(a1-3)[Fuc(a1-2)]Gal(b1-4)GlcNAc
# Summary of the method: as §1
# [10] = molecular target: Fuc(a1-2)[GalNAc(a1-3)]Gal(b1-3)GlcNAc
# Summary of the method: as §1
# [11] = molecular target: Fuc(a1-2)[GalNAc(a1-3)]Gal(b1-3)GlcNAc(b1-2)Man(a1-3)[Fuc(a1-2)[GalNAc(a1-3)]Gal(b1-3)GlcNAc(b1-2)Man(a1-6)]Man(b1-4)GlcNAc(b1-4)GlcNAc
# Summary of the method: as §1
# [12] = molecular target: Fuc(a1-2)[GalNAc(a1-3)]Gal(b1-4)Glc
# Summary of the method: as §1
# [13] = molecular target: Fuc(a1-2)[GalNAc(a1-3)]Gal(b1-4)GlcNAc
# Summary of the method: as §1
# [14] = molecular target: Fuc(a1-2)[GalNAc(a1-3)]Gal(b1-4)GlcNAc(b1-2)Man(a1-3)[Fuc(a1-2)[GalNAc(a1-3)]Gal(b1-4)GlcNAc(b1-2)Man(a1-6)]Man(b1-4)GlcNAc(b1-4)GlcNAc
# Summary of the method: as §1
# [15] = molecular target: Fuc(a1-2)[GalNAc(a1-3)]Gal(b1-4)GlcNAc(b1-3)Gal(b1-4)GlcNAc
# Summary of the method: as §1
# [16] = molecular target: Fuc(a1-2)[GalNAc(a1-3)]Gal(b1-4)GlcNAc(b1-3)Gal(b1-4)GlcNAc(b1-3)Gal(b1-4)GlcNAc
# Summary of the method: as §1
# [17] = molecular target: Fuc(a1-2)[GalNAc(a1-3)]Gal(b1-4)[Fuc(a1-3)]GlcNAc
# Summary of the method: as §1
# [18] = molecular target: Fuc(a1-2)[GalNAc(a1-4)]Gal(b1-4)GlcNAc
# Summary of the method: as §1
# [19] = molecular target: Fuc(a1-2)[GalNAc(b1-3)]Gal
# Summary of the method: as §1
# Fuc(a1-3)GlcNAc = molecular target: Fuc(a1-3)GlcNAc
# Summary of the method: as §1
# [20] = molecular target: Fuc(a1-3)[Gal(b1-4)]Glc6S
# Summary of the method: as §1
# [21] = molecular target: Fuc(a1-3)[Gal(b1-4)]GlcNAc
# Summary of the method: as §1
# [22] = molecular target: Fuc(a1-3)[Gal(b1-4)]GlcNAc(b1-2)Man(a1-3)[Fuc(a1-3)[Gal(b1-4)]GlcNAc(b1-2)Man(a1-6)]Man(b1-4)GlcNAc(b1-4)GlcNAc
# Summary of the method: as §1
# [23] = molecular target: Fuc(a1-3)[Gal(b1-4)]GlcNAc(b1-3)Gal(b1-3)[Fuc(a1-4)]GlcNAc
# Summary of the method: as §1
# [24] = molecular target: Fuc(a1-3)[Gal(b1-4)]GlcNAc(b1-3)GalNAc
# Summary of the method: as §1
# [25] = molecular target: Fuc(a1-3)[Gal(b1-4)]GlcNAc(b1-4)Gal(b1-4)[Fuc(a1-3)]GlcNAc
# Summary of the method: as §1
# [26] = molecular target: Fuc(a1-3)[Gal(b1-4)]GlcNAc(b1-4)Gal(b1-4)[Fuc(a1-3)]GlcNAc(b1-4)Gal(b1-4)[Fuc(a1-3)]GlcNAc
# Summary of the method: as §1
# [27] = molecular target: Fuc(a1-3)[Gal(b1-4)]GlcNAc(b1-6)[Gal(b1-3)GlcNAc(b1-3)]Gal(b1-4)Glc
# Summary of the method: as §1
# [28] = molecular target: Fuc(a1-3)[Gal(b1-4)]GlcNAc6S
# Summary of the method: as §1
# [29] = molecular target: Fuc(a1-3)[Gal3S(b1-4)]GlcNAc
# Summary of the method: as §1
# [30] = molecular target: Fuc(a1-3)[Gal3S(b1-4)]GlcNAc6S
# Summary of the method: as §1
# [31] = molecular target: Fuc(a1-3)[GalNAc(b1-4)]GlcNAc
# Summary of the method: as §1
# Fuc(a1-4)GlcNAc = molecular target: Fuc(a1-4)GlcNAc
# Summary of the method: as §1
# Fuc(b1-3)GlcNAc = molecular target: Fuc(b1-3)GlcNAc
# Summary of the method: as §1
# Gal(a1-2)Gal = molecular target: Gal(a1-2)Gal
# Summary of the method: as §1
# Gal(a1-3)Gal = molecular target: Gal(a1-3)Gal
# Summary of the method: as §1
# Gal(a1-3)Gal(b1-3)GlcNAc = molecular target: Gal(a1-3)Gal(b1-3)GlcNAc
# Summary of the method: as §1
# [32] = molecular target: Gal(a1-3)Gal(b1-3)GlcNAc(b1-2)Man(a1-3)[Gal(a1-3)Gal(b1-3)GlcNAc(b1-2)Man(a1-6)]Man(b1-4)GlcNAc(b1-4)GlcNAc
# Summary of the method: as §1
# [33] = molecular target: Gal(a1-3)Gal(b1-3)[Fuc(a1-4)]GlcNAc(b1-2)Man(a1-3)[Gal(a1-3)Gal(b1-3)[Fuc(a1-4)]GlcNAc(b1-2)Man(a1-6)]Man(b1-4)GlcNAc(b1-4)GlcNAc
# Summary of the method: as §1
# Gal(a1-3)Gal(b1-4)Glc = molecular target: Gal(a1-3)Gal(b1-4)Glc
# Summary of the method: as §1
# Gal(a1-3)Gal(b1-4)GlcNAc = molecular target: Gal(a1-3)Gal(b1-4)GlcNAc
# Summary of the method: as §1
# [34] = molecular target: Gal(a1-3)Gal(b1-4)GlcNAc(b1-3)GalNAc
# Summary of the method: as §1
# [35] = molecular target: Gal(a1-3)Gal(b1-4)[Fuc(a1-3)]GlcNAc
# Summary of the method: as §1
# [36] = molecular target: Gal(a1-3)Gal(b1-4)[Fuc(a1-3)]GlcNAc(b1-2)Man(a1-3)[Gal(a1-3)Gal(b1-4)[Fuc(a1-3)]GlcNAc(b1-2)Man(a1-6)]Man(b1-4)GlcNAc(b1-4)GlcNAc
# Summary of the method: as §1
binder,measurement,setting,value
"CLEC9a (Mus musculus), Q8BRU4 (protein) MHAEEIYTSLQWDIPTSEASQKCQSPSKCSGAWCVVTMISCVVCMGLLATSIFLGIKFFQVSSLVLEQQERLIQQDTALVNLTQWQRKYTLEYCQALLQRSLHSGSDCSPCPHNWIQNGKSCYYVFERWEMWNISKKSCLKEGASLFQIDSKEEMEFISSIGKLKGGNKYWVGVFQDGISGSWFWEDGSSPLSDLLPAERQRSAGQICGYLKDSTLISDKCDSWKYFICEKKAFGSCI",glycan array binding signal (z-score),Fuc(a1-2)[Gal(a1-3)]Gal,0.982
same,glycan array binding signal (z-score),[1],1.05
same,glycan array binding signal (z-score),[2],3.03
same,glycan array binding signal (z-score),[3],1.11
same,glycan array binding signal (z-score),[4],0.738
same,glycan array binding signal (z-score),[5],-0.072
same,glycan array binding signal (z-score),[6],-0.146
same,glycan array binding signal (z-score),[7],0.057
same,glycan array binding signal (z-score),[8],0.956
same,glycan array binding signal (z-score),[9],0.06
same,glycan array binding signal (z-score),[10],0.627
same,glycan array binding signal (z-score),[11],0.379
same,glycan array binding signal (z-score),[12],0.468
same,glycan array binding signal (z-score),[13],0.134
same,glycan array binding signal (z-score),[14],-0.982
same,glycan array binding signal (z-score),[15],-0.874
same,glycan array binding signal (z-score),[16],-0.724
same,glycan array binding signal (z-score),[17],-1.38
same,glycan array binding signal (z-score),[18],1.48
same,glycan array binding signal (z-score),[19],-0.241
same,glycan array binding signal (z-score),Fuc(a1-3)GlcNAc,-0.051
same,glycan array binding signal (z-score),[20],0.238
same,glycan array binding signal (z-score),[21],0.79
same,glycan array binding signal (z-score),[22],1.74
same,glycan array binding signal (z-score),[23],0.143
same,glycan array binding signal (z-score),[24],0.322
same,glycan array binding signal (z-score),[25],1.06
same,glycan array binding signal (z-score),[26],-0.403
same,glycan array binding signal (z-score),[27],-0.886
same,glycan array binding signal (z-score),[28],-0.966
same,glycan array binding signal (z-score),[29],0.043
same,glycan array binding signal (z-score),[30],-0.039
same,glycan array binding signal (z-score),[31],-0.016
same,glycan array binding signal (z-score),Fuc(a1-4)GlcNAc,0.63
same,glycan array binding signal (z-score),Fuc(b1-3)GlcNAc,-0.568
same,glycan array binding signal (z-score),Gal(a1-2)Gal,0.171
same,glycan array binding signal (z-score),Gal(a1-3)Gal,1.37
same,glycan array binding signal (z-score),Gal(a1-3)Gal(b1-3)GlcNAc,0.766
same,glycan array binding signal (z-score),[32],0.323
same,glycan array binding signal (z-score),[33],1.38
same,glycan array binding signal (z-score),Gal(a1-3)Gal(b1-4)Glc,0.156
same,glycan array binding signal (z-score),Gal(a1-3)Gal(b1-4)GlcNAc,1.47
same,glycan array binding signal (z-score),[34],-0.478
same,glycan array binding signal (z-score),[35],0.082
same,glycan array binding signal (z-score),[36],0.312

# Three consecutive records out of the list so far, quoted:
binder,measurement,setting,value
"CLEC9a (Mus musculus), Q8BRU4 (protein) MHAEEIYTSLQWDIPTSEASQKCQSPSKCSGAWCVVTMISCVVCMGLLATSIFLGIKFFQVSSLVLEQQERLIQQDTALVNLTQWQRKYTLEYCQALLQRSLHSGSDCSPCPHNWIQNGKSCYYVFERWEMWNISKKSCLKEGASLFQIDSKEEMEFISSIGKLKGGNKYWVGVFQDGISGSWFWEDGSSPLSDLLPAERQRSAGQICGYLKDSTLISDKCDSWKYFICEKKAFGSCI",glycan array binding signal (z-score),[25],1.06
same,glycan array binding signal (z-score),[26],-0.403
same,glycan array binding signal (z-score),[27],-0.886
